The campaign covered roughly 140,000 compounds. About 4,300 (3.1%) were called active. This list was built around the results that the source calls inconclusive (neither active nor inactive); the mix of calls is not that of the screen.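 Rule for the calls: active = readout at or below -70, meaning at least 70% loss of cells showing the perinucleolar compartment, a nuclear body marking cancer cells; inconclusive = readout between -30 and a set limit; inactive = the rest.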
assay: High Content Assay for Compounds that inhibit the Assembly of the Perinucleolar Compartment; details: PC3M PTB-GFP, PNC prevalence imaging, 16 h; at 10 µM; hits give low values;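 note: plate controls were DMSO wells for no effect and camptothecin positive control wells for full effect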
In short: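 Read-out is percentage of cells bearing a perinucleolar compartment, from automated 20x imaging of fixed, Hoechst-stained PC3M PTB-GFP cells. Cells were seeded 4 h, then exposed 16 h to compound (23 nl of library stock) in duplicate plates.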

| Structure (SMILES) | activity change (PNC), negative = inhibition |
| --- | --- |
| Cc1ccc(-c2noc(CCC(=O)Nc3ccccc3N3CCN(C)CC3)n2)cc1 | inconclusive: -35.3% |
| COc1cccc(C(=O)C2CN(c3ccccc3)CC2c2ccc(Cl)cc2)c1 (centres undefined) | inconclusive: -47.7% |
| CCOC(=O)C1=C(C)N(C)C(=O)NC1c1ccccc1OC (centres undefined) | inconclusive: -38.4% |
| Cc1ccc(-c2noc(C3CCCN(C(=O)c4ccc(F)cc4F)C3)n2)cc1 (centres undefined) | inconclusive: -62.7% |
| CCCCCCOc1ccc(NC(=O)CC2C(=O)N(CC)C(=S)N2Cc2ccco2)cc1 (centres undefined) | inactive: 7.54% |
| CCOc1ccccc1C(=O)N1CCC(C(=O)c2ccc(F)cc2)CC1 | inconclusive: -39.1% |
| CCCCn1c(NS(=O)(=O)c2ccccc2)c(S(=O)(=O)c2ccc(C)cc2)c2nc3ccccc3nc21 | inconclusive: -62.2% |
| Nc1nc(NCc2ccccc2)nc(-c2ccccc2)n1 | inconclusive: -67.2% |
| O=C(CCc1ccc(S(=O)(=O)NCCc2ccccc2)cc1)N1CCN(Cc2ccc3c(c2)OCO3)CC1 | inactive: 2.97% |
| CCc1nc(N2CCOCC2)c(C#N)c2c1CCCC2 | inconclusive: -38% |
| COc1ccc(OC)c(S(=O)(=O)NC2CCCCC2)c1 | inconclusive: -41.2% |
| Cc1oc2ccc(O)c(CN3CCOCC3)c2c1C(C)O (centres undefined) | inconclusive: -66.5% |
| CC(=O)NC1=NN(c2ccccc2)C(=O)C1 | inactive: 85.5% |
| COC(=O)c1c(S(=O)(=O)NCc2ccccc2)sc(C(=O)O)c1C | inactive: -4.31% |
| CCOc1ccc(C2N(c3ccc(OC)cc3)C(=O)C3CCCN32)cc1OC (centres undefined) | inactive: 28% |
| COc1ccc(C)cc1NC(=O)CSc1nnc(COc2ccc(C)cc2)n1Cc1ccco1 | inconclusive: -30.8% |
| Cc1onc(-c2ccccc2Cl)c1C(=O)NCc1ccc(S(N)(=O)=O)cc1 | inconclusive: -40.5% |
| CCOC(=O)c1c(C2CC2)csc1NC(=O)COC(=O)CCS(=O)(=O)c1ccc(C)cc1 | inconclusive: -38.7% |
| CCOC(=O)Nc1sc2c(c1C(=O)OCC)CCC2 | inactive: 12.6% |
| CCOc1ccc(S(=O)(=O)Nc2ccc(C(=O)N/N=C(\C)c3ccc(-n4ccnc4)cc3)cc2)cc1 | inactive: 5.2% |
| O=C(NC1CCCCC1)C(c1ccccc1)N(C(=O)Cc1ccsc1)c1ccccc1 (centres undefined) | inconclusive: -48.6% |
| Cc1[nH]nc(SCC(=O)NCc2ccc(F)cc2)c1[N+](=O)[O-] | inconclusive: -31% |
| COc1ccc(CN2CCN(C(=O)c3cccs3)CC2)cc1 | inconclusive: -46% |
| CCSC1=N/C(=C\c2ccc(-c3ccccc3[N+](=O)[O-])o2)C(=O)S1 | inactive: 58.7% |

Some of the entries so far, with bars between the fields.
Structure (SMILES) | activity change (PNC), negative = inhibition
O=C(CCc1ccc(S(=O)(=O)NCCc2ccccc2)cc1)N1CCN(Cc2ccc3c(c2)OCO3)CC1 | inactive: 2.97%
CCc1nc(N2CCOCC2)c(C#N)c2c1CCCC2 | inconclusive: -38%

Reference: PubChem BioAssay AID2417 (National Center for Advancing Translational Sciences (NCATS), 2010)
